B1: IL-1R8, Q6IA17 1-410 (receptor)
chain: MPGVCDRAPDFLSPSEDQVLRPALGSSVALNCTAWVVSGPHCSLPSVQWLKDGLPLGIGGHYSLHEYSWVKANLSEVLVSSVLGVNVTSTEVYGAFTCSIQNISFSSFTLQRAGPTSHVAAVLASLLVLLALLLAALLYVKCRLNVLLWYQDAYGEVEINDGKLYDAYVSYSDCPEDRKFVNFILKPQLERRRGYKLFLDDRDLLPRAEPSADLLVNLSRCRRLIVVLSDAFLSRAWCSHSFREGLCRLLELTRRPIFITFEGQRRDPAHPALRLLRQHRHLVTLLLWRPGSVTPSSDFWKEVQLALPRKVQYRPVEGDPQTQLQDDKDPMLILRGRVPEGRALDSEVDPDPEGDLGVRGPVFGEPSAPPHTSGVSLGESRSSEVDVSDLGSRNYSARTDFYCLVSKDDM
B2: PDS5A, endogenous (protein, UniProt Q29RF7 1-1337)
chain: MDFTAQPKPATALCGVVSADGKIAYPPGVKEITDKITTDEMIKRLKMVVKTFMDMDQDSEDEKQQYLPLALHLASEFFLRNPNKDVRLLVACCLADIFRIYAPEAPYTSHDKLKDIFLFITRQLKGLEDTKSPQFNRYFYLLENLAWVKSYNICFELEDCNEIFIQLFRTLFSVINNSHNKKVQMHMLDLMSSIIMEGDGVTQELLDSILINLIPAHKNLNKQSFDLAKVLLKRTVQTIEACIANFFNQVLVLGRSSVSDLSEHVFDLIQELFAIDPHLLLSVMPQLEFKLKSNDGEERLAVVRLLAKLFGSKDSDLATQNRPLWQCFLGRFNDIHVPVRLESVKFASHCLMNHPDLAKDLTEYLKVRSHDPEEAIRHDVIVTIITAAKRDLALVNDQLLGFVRERTLDKRWRVRKEAMMGLAQLYKKYCLHGEAGKEAAEKVSWIKDKLLHIYYQNSIDDKLLVEKIFAQYLVPHNLETEERMKCLYYLYASLDPNAVKALNEMWKCQNMLRSHVRELLDLHKQPTSEANCSAMFGKLMTIAKNLPDPGKAQDFVKKFNQVLGDDEKLRSQLELLISPTCSCKQADICVREIARKLANPKQPTNPFLEMVKFLLERIAPVHIDSEAISALVKLMNKSIEGTADDEEEGVSPDTAIRSGLELLKVLSFTHPTSFHSAETYESLLQCLRMEDDKVAEAAIQIFRNTGHKIETDLPQIRSTLIPILHQKAKRGTPHQAKQAVHCIHAIFTNKEVQLAQIFEPLSRSLNADVPEQLITPLVSLGHISMLAPDQFASPMKSVVANFIVKDLLMNDRSTGEKNGKLWSPDEEVSPEVLAKVQAIKLLVRWLLGMKNNQSKSANSTLRLLSAMLVSEGDLTEQKRISKSDMSRLRLAAGSAIMKLAQEPCYHEIITPEQFQLCALVINDECYQVRQIFAQKLHKALVKLLLPLEYMAIFALCAKDPVKERRAHARQCLLKNISIRREYIKQNPMATEKLLSLLPEYVVPYMIHLLAHDPDFTRSQDVDQLRDIKECLWFMLEVLMTKNENNSHAFMKKMAENIKLTRDAQSPDESKTNEKLYTVCDVALCVINSKSALCNADSPKDPVLPMKFFTQPEKDFCNDKSYISEETRVLLLTGKPKPAGVLGAVNKPLSATGRKPYVRSTGTETGSNINVNSELNPSTGNRSREQSSEAAETGVSENEENPVRIISVTPVKNIDPVKNKEINSDQATQGNISSDRGKKRTVTAAGAENIQQKTDEKVDESGPPAPSKPRRGRRPKSESQGNATKNDDLNKPINKGRKRAAVGQESPGGLEAGNAKAPKLQDLAKKAAPAERQIDLQR
B3: WAPL, endogenous (protein, UniProt Q7Z5K2 1-1190)
chain: MTSRFGKTYSRKGGNGSSKFDEVFSNKRTTLSTKWGETTFMAKLGQKRPNFKPDIQEIPKKPKVEEESTGDPFGFDSDDESLPVSSKNLAQVKCSSYSESSEAAQLEEVTSVLEANSKISHVVVEDTVVSDKCFPLEDTLLGKEKSTNRIVEDDASISSCNKLITSDKVENFHEEHEKNSHHIHKNADDSTKKPNAETTVASEIKETNDTWNSQFGKRPESPSEISPIKGSVRTGLFEWDNDFEDIRSEDCILSLDSDPLLEMKDDDFKNRLENLNEAIEEDIVQSVLRPTNCRTYCRANKTKSSQGASNFDKLMDGTSQALAKANSESSKDGLNQAKKGGVSCGTSFRGTVGRTRDYTVLHPSCLSVCNVTIQDTMERSMDEFTASTPADLGEAGRLRKKADIATSKTTTRFRPSNTKSKKDVKLEFFGFEDHETGGDEGGSGSSNYKIKYFGFDDLSESEDDEDDDCQVERKTSKKRTKTAPSPSLQPPPESNDNSQDSQSGTNNAENLDFTEDLPGVPESVKKPINKQGDKSKENTRKIFSGPKRSPTKAVYNARHWNHPDSEELPGPPVVKPQSVTVRLSSKEPNQKDDGVFKAPAPPSKVIKTVTIPTQPYQDIVTALKCRREDKELYTVVQHVKHFNDVVEFGENQEFTDDIEYLLSGLKSTQPLNTRCLSVISLATKCAMPSFRMHLRAHGMVAMVFKTLDDSQHHQNLSLCTAALMYILSRDRLNMDLDRASLDLMIRLLELEQDASSAKLLNEKDMNKIKEKIRRLCETVHNKHLDLENITTGHLAMETLLSLTSKRAGDWFKEELRLLGGLDHIVDKVKECVDHLSRDEDEEKLVASLWGAERCLRVLESVTVHNPENQSYLIAYKDSQLIVSSAKALQHCEELIQQYNRAEDSICLADSKPLPHQNVTNHVGKAVEDCMRAIIGVLLNLTNDNEWGSTKTGEQDGLIGTALNCVLQVPKYLPQEQRFDIRVLGLGLLINLVEYSARNRHCLVNMETSCSFDSSICSGEGDDSLRIGGQVHAVQALVQLFLERERAAQLAESKTDELIKDAPTTQHDKSGEWQETSGEIQWVSTEKTDGTEEKHKKEEEDEELDLNKALQHAGKHMEDCIVASYTALLLGCLCQESPINVTTVREYLPEGDFSIMTEMLKKFLSFMNLTCAVGTTGQKSISRVIEYLEHC
B4: HNRNPM, endogenous (protein, UniProt P52272 1-730)
chain: MAAGVEAAAEVAATEIKMEEESGAPGVPSGNGAPGPKGEGERPAQNEKRKEKNIKRGGNRFEPYANPTKRYRAFITNIPFDVKWQSLKDLVKEKVGEVTYVELLMDAEGKSRGCAVVEFKMEESMKKAAEVLNKHSLSGRPLKVKEDPDGEHARRAMQKVMATTGGMGMGPGGPGMITIPPSILNNPNIPNEIIHALQAGRLGSTVFVANLDYKVGWKKLKEVFSMAGVVVRADILEDKDGKSRGIGTVTFEQSIEAVQAISMFNGQLLFDRPMHVKMDERALPKGDFFPPERPQQLPHGLGGIGMGLGPGGQPIDANHLNKGIGMGNIGPAGMGMEGIGFGINKMGGMEGPFGGGMENMGRFGSGMNMGRINEILSNALKRGEIIAKQGGGGGGGSVPGIERMGPGIDRLGGAGMERMGAGLGHGMDRVGSEIERMGLVMDRMGSVERMGSGIERMGPLGLDHMASSIERMGQTMERIGSGVERMGAGMGFGLERMAAPIDRVGQTIERMGSGVERMGPAIERMGLSMERMVPAGMGAGLERMGPVMDRMATGLERMGANNLERMGLERMGANSLERMGLERMGANSLERMGPAMGPALGAGIERMGLAMGGGGGASFDRAIEMERGNFGGSFAGSFGGAGGHAPGVARKACQIFVRNLPFDFTWKMLKDKFNECGHVLYADIKMENGKSKGCGVVKFESPEVAERACRMMNGMKLSGREIDVRIDRNA
B5: SMC1A, endogenous (protein, UniProt Q14683 1-1233)
chain: MGFLKLIEIENFKSYKGRQIIGPFQRFTAIIGPNGSGKSNLMDAISFVLGEKTSNLRVKTLRDLIHGAPVGKPAANRAFVSMVYSEEGAEDRTFARVIVGGSSEYKINNKVVQLHEYSEELEKLGILIKARNFLVFQGAVESIAMKNPKERTALFEEISRSGELAQEYDKRKKEMVKAEEDTQFNYHRKKNIAAERKEAKQEKEEADRYQRLKDEVVRAQVQLQLFKLYHNEVEIEKLNKELASKNKEIEKDKKRMDKVEDELKEKKKELGKMMREQQQIEKEIKEKDSELNQKRPQYIKAKENTSHKIKKLEAAKKSLQNAQKHYKKRKGDMDELEKEMLSVEKARQEFEERMEEESQSQGRDLTLEENQVKKYHRLKEEASKRAATLAQELEKFNRDQKADQDRLDLEERKKVETEAKIKQKLREIEENQKRIEKLEEYITTSKQSLEEQKKLEGELTEEVEMAKRRIDEINKELNQVMEQLGDARIDRQESSRQQRKAEIMESIKRLYPGSVYGRLIDLCQPTQKKYQIAVTKVLGKNMDAIIVDSEKTGRDCIQYIKEQRGEPETFLPLDYLEVKPTDEKLRELKGAKLVIDVIRYEPPHIKKALQYACGNALVCDNVEDARRIAFGGHQRHKTVALDGTLFQKSGVISGGASDLKAKARRWDEKAVDKLKEKKERLTEELKEQMKAKRKEAELRQVQSQAHGLQMRLKYSQSDLEQTKTRHLALNLQEKSKLESELANFGPRINDIKRIIQSREREMKDLKEKMNQVEDEVFEEFCREIGVRNIREFEEEKVKRQNEIAKKRLEFENQKTRLGIQLDFEKNQLKEDQDKVHMWEQTVKKDENEIEKLKKEEQRHMKIIDETMAQLQDLKNQHLAKKSEVNDKNHEMEEIRKKLGGANKEMTHLQKEVTAIETKLEQKRSDRHNLLQACKMQDIKLPLSKGTMDDISQEEGSSQGEDSVSGSQRISSIYAREALIEIDYGDLCEDLKDAQAEEEIKQEMNTLQQKLNEQQSVLQRIAAPNMKAMEKLESVRDKFQETSDEFEAARKRAKKAKQAFEQIKKERFDRFNACFESVATNIDEIYKALSRNSSAQAFLGPENPEEPYLDGINYNCVAPGKRFRPMDNLSGGEKTVAALALLFAIHSYKPAPFFVLDEIDAALDNTNIGKVANYIKEQSTCNFQAIVISLKEEFYTKAESLIGVYPEQGDCVISKVLTFDLTKYPDANPNPNEQ

Amino acid sequences for entries named in this document (tags omitted).
UniProt O60216: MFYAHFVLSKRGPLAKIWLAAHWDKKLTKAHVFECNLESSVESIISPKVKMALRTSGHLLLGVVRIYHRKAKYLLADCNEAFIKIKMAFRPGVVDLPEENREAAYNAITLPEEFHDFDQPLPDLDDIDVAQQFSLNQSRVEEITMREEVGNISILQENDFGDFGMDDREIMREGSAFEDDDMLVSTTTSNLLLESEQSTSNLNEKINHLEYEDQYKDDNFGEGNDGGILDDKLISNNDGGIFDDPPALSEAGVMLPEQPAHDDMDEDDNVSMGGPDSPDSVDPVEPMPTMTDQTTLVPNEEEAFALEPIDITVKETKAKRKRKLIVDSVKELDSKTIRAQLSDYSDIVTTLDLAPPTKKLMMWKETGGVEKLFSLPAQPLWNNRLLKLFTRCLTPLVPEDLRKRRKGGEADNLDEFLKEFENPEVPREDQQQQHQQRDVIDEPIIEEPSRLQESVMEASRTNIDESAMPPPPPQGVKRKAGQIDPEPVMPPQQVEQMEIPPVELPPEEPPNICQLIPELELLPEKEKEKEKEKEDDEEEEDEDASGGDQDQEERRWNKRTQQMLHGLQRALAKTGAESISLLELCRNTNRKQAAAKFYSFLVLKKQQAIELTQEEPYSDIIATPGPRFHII
UniProt Q9UQE7: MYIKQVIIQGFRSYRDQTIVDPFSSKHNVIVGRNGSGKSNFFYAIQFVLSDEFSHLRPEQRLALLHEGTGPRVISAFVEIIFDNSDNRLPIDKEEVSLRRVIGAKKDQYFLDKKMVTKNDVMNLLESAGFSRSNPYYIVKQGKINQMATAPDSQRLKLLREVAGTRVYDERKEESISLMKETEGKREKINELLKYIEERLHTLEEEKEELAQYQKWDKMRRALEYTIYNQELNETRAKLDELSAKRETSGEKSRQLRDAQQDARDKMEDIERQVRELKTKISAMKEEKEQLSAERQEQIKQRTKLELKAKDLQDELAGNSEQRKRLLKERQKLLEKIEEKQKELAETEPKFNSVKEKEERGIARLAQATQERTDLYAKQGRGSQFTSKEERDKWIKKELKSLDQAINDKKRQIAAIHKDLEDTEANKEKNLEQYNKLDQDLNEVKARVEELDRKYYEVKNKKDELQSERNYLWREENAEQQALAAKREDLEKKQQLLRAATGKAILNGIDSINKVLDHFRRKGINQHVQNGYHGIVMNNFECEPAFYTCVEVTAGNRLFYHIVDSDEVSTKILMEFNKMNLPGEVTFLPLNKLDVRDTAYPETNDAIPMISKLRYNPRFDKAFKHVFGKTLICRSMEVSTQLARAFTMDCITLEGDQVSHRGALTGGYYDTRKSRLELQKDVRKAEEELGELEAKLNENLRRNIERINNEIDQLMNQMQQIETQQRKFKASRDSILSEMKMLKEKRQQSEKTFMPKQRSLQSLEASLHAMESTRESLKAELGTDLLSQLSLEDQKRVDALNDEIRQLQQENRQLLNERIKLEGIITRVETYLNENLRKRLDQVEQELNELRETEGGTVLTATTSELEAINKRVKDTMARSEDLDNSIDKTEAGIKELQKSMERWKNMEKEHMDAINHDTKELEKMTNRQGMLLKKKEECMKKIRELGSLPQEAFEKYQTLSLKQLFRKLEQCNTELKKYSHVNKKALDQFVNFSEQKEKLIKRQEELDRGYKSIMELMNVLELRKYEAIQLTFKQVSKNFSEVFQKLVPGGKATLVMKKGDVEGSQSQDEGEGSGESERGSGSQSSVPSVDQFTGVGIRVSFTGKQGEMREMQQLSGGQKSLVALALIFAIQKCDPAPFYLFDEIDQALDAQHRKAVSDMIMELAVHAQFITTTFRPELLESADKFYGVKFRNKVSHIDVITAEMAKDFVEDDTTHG

Results are given in words; binding and its absence hold for the method and conditions named. Binding seen in cells or lysates may run through a third protein. Here binding means that the protein was enriched with, or labelled near, the bait; the list need not be complete. For some of these results: A no says only that the protein was not detected with the bait. Sequences can lack the tags named with a protein.

The first experiment has as its target T1, FLAG-streptavidin-binding peptide (FSBP) dual epitope-tagged USP13, from the gene-edited endogenous allele (human (endogenous in HCT116)), Q92995.
T1 chain: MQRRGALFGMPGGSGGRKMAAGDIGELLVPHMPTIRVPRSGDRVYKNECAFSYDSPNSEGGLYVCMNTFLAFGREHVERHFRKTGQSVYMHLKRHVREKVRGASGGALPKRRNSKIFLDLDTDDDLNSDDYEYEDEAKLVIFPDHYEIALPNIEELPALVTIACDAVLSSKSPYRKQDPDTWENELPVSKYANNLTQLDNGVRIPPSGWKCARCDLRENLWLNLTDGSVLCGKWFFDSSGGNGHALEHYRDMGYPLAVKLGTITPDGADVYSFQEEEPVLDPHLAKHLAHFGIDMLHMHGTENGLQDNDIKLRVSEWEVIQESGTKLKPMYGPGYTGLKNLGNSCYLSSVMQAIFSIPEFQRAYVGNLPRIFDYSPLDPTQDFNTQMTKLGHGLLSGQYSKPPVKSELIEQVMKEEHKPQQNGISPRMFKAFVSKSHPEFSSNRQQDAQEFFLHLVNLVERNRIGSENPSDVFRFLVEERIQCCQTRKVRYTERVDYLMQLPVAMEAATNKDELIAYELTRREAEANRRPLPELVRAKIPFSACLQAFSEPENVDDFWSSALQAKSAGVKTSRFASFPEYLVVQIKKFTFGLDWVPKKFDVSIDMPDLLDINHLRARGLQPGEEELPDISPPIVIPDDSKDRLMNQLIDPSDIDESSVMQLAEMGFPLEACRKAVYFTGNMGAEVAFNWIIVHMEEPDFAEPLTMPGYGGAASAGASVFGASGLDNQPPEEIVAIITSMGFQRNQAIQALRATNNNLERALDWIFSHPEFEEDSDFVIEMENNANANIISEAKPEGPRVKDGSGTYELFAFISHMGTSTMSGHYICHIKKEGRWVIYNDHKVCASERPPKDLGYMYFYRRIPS
As to the kind of experiment: affinity purification with mass spectrometry; dual-affinity purification (FLAG M2 beads, FLAG peptide elution, then streptavidin resin, biotin elution; TBS 150 mM NaCl) of FSBP-USP13 from 60 mg HCT116 nuclear extract, parental cells as control, GeLC-MS/MS. Particulars: remark: other sources report otherwise.
Turning to B1, the binding result was “no binding”.

A further experiment concerns the target T2, FLAG-streptavidin-binding peptide (FSBP) dual epitope-tagged USP13, from the gene-edited endogenous allele (human (endogenous in HCT116)) (UniProt Q92995).
T2 sequence: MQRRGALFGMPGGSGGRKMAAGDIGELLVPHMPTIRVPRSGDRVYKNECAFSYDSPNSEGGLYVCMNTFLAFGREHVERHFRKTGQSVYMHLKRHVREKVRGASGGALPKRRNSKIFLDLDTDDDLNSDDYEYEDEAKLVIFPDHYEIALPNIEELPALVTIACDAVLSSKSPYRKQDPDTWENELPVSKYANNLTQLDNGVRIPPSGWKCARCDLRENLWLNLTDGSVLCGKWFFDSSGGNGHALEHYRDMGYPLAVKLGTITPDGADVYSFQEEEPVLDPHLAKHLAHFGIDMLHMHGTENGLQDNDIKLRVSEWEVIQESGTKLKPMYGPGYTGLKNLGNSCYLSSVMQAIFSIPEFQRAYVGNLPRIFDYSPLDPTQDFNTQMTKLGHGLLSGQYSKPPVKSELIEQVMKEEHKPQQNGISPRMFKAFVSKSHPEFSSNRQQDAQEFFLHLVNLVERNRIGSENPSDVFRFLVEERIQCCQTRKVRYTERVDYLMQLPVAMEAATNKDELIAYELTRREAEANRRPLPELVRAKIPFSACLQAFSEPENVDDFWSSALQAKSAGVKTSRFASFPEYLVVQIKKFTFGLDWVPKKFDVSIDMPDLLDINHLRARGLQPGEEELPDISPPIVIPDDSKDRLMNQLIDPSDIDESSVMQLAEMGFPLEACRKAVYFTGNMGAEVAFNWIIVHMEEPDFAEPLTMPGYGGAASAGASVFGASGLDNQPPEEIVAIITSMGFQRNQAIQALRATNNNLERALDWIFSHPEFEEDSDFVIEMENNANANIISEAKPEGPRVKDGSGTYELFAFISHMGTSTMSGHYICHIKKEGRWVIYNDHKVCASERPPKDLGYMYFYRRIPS
The description is as above.
Conditions: not given
Consider “RAD21, endogenous (from UniProt O60216 1-631)”, for which the binding entry is listed as “binds”.

On to “SMC3, endogenous (from UniProt Q9UQE7 1-1217)”, for which the binding result is reported as “binds”.

B2: the binding entry was “binds”.

Regarding B3, the binding entry is “binds”.

Turning to B4, the binding result is “binds”.

Take B5: the binding result was “binds”.

Source of the values: PMC7948425.
